# Results as given in PubChem BioAssay (Tox21).
# By UniProt entry, the sequences of proteins in these tests, tags left out. Where a name states a change or a piece, a line headed by the entry shows the natural chain unless it says otherwise.
# UniProt P10635, whole entry, looked up: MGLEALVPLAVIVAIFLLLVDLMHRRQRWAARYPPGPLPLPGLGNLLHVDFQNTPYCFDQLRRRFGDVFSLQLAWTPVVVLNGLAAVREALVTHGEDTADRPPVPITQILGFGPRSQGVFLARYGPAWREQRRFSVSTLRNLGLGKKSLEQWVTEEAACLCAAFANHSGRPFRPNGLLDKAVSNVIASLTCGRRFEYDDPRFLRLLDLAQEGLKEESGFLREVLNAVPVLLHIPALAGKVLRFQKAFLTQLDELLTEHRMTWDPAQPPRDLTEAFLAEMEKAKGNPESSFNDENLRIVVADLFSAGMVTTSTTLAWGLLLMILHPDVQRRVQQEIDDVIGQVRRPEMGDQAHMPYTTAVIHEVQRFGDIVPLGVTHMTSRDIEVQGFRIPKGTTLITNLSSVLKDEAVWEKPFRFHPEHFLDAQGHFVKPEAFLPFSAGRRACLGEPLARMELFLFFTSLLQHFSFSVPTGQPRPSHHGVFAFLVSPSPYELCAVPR
# UniProt P08684, whole entry, looked up: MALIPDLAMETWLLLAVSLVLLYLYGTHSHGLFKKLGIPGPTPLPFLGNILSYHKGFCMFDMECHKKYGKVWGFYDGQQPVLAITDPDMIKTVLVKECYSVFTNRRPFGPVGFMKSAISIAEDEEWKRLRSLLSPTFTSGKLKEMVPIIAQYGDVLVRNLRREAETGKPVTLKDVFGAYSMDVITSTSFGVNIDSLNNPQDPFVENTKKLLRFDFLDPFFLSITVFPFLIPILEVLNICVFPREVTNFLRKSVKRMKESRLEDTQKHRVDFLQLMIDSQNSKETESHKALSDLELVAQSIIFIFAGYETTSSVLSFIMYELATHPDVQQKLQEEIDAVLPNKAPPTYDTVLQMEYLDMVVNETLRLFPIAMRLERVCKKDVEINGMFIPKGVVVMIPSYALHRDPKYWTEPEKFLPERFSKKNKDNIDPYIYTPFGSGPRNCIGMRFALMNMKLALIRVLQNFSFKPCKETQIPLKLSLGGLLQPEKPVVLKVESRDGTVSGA
# UniProt P05177, whole entry, looked up: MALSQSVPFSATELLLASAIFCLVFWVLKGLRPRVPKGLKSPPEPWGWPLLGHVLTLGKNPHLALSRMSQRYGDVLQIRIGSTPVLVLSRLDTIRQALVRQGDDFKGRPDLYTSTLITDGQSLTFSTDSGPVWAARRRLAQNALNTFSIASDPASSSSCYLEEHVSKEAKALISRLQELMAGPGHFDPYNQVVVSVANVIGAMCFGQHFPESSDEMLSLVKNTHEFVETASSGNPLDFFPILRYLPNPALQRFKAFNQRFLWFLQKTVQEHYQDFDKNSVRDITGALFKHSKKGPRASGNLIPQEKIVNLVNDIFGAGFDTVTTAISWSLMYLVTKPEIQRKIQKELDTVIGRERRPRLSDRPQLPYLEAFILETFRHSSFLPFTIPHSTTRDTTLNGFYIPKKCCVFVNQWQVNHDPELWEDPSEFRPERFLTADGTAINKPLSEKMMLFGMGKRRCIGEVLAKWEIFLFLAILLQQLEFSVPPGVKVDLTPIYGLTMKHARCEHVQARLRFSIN
# UniProt P33261, whole entry, looked up: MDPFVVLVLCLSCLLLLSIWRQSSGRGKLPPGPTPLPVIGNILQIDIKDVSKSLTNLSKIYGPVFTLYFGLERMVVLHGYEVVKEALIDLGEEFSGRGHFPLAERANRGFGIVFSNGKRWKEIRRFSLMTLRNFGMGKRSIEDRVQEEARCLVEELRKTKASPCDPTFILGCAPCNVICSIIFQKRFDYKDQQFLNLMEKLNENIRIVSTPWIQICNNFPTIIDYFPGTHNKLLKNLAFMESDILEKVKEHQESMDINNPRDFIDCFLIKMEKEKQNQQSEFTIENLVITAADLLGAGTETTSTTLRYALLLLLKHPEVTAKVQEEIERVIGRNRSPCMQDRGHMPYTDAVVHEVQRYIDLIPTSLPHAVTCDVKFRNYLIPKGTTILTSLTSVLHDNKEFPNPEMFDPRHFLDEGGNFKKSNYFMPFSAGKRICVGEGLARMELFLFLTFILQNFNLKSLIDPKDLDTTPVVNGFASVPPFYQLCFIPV
# UniProt P11712, whole entry, looked up: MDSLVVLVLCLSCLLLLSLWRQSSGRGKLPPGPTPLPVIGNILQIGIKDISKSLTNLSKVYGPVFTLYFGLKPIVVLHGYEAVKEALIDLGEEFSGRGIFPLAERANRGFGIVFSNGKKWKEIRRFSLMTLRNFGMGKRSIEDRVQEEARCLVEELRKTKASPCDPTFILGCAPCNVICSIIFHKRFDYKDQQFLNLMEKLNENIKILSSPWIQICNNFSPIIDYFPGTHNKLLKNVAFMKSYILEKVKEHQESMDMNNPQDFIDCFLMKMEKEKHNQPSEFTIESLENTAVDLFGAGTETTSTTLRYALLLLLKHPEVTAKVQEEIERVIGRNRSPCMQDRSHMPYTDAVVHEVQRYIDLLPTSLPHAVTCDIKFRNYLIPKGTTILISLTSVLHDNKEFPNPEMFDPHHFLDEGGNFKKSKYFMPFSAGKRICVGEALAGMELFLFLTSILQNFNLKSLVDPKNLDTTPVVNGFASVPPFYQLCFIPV
# UniProt Q12809: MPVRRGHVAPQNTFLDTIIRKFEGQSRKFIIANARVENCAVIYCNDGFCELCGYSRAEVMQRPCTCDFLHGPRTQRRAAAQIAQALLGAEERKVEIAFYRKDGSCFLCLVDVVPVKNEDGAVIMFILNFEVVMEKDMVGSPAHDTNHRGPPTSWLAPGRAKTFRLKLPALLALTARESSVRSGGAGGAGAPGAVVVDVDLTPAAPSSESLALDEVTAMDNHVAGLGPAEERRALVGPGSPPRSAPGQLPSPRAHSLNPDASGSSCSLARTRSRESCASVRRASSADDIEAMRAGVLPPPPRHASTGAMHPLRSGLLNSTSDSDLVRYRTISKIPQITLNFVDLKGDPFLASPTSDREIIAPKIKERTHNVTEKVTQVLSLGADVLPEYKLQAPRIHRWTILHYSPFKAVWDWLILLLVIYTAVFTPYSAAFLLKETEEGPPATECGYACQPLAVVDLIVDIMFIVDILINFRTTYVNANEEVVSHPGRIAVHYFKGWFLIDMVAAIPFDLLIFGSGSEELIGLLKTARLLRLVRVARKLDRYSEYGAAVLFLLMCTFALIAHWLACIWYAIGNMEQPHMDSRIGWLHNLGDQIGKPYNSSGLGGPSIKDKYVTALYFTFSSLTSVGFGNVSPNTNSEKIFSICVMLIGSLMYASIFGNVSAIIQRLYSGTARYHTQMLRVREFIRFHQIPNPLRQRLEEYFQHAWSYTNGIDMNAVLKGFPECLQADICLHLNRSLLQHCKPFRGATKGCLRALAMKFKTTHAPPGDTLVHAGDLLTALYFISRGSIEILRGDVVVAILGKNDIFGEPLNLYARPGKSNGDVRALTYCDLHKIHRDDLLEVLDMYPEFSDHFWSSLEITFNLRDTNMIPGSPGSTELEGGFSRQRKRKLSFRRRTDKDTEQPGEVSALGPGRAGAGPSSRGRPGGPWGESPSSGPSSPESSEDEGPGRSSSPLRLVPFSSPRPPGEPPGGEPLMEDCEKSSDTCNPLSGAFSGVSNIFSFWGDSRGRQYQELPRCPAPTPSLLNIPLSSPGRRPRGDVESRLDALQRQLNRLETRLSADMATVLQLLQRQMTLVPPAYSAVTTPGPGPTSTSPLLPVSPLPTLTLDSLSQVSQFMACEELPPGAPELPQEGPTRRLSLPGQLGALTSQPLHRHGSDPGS
# The inconclusive results got no clear call from the source; some entries with a clear call stand among them for comparison. For some assays here: Potencies of inconclusive entries are doubtful fits and often do not repeat. Activity calls are given as the source filed them. The call rests on the fitted dose curve; in most records, active means well fitted curve in the direction sought with a large enough effect in the repeat runs; inconclusive means weak or mixed curves; inactive means no such curve, though single readings can be large; an effect the other way counts as inactive or inconclusive.
# Legend:
# [1] = biological target: Cytochrome P450 2D6 (Homo sapiens) (UniProt P10635); experiment: Cytochrome P450 Family 2 Subfamily D Member 6 (CYP2D6) small molecule antagonists: luciferase reporter qHTS assay (AID 1671196); further: nearly all actives have a fitted effect of over 50% in size
# How it was run: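 Enzyme and proluciferin substrate were first combined with test chemical for 10 min at room temperature. Adding NADPH regeneration solution started a 1 h reaction, stopped with luciferin detection reagent and read by luminescence 20 min later.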
# [2] = biological target: Cytochrome P450 3A4 (Homo sapiens) (UniProt P08684); experiment: Cytochrome P450 Family 3 Subfamily A Member 4 (CYP3A4) small molecule antagonists: luciferase reporter qHTS assay (AID 1671201); further: nearly all actives have a fitted effect of over 50% in size
# How it was run: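 Luminescent readout (RLU) proportional to CYP3A4 activity, from luciferin generated off a proluciferin substrate. Enzyme–substrate mix plus compound 10 min at room temp, NADPH regeneration 1 h, detection reagent 20 min.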
# [3] = biological target: Cytochrome P450 1A2 (Homo sapiens) (UniProt P05177); experiment: Cytochrome P450 Family 1 Subfamily A Member 2 (CYP1A2) small molecule antagonists: luciferase reporter qHTS assay (AID 1671199); further: nearly all actives have a fitted effect of over 50% in size
# How it was run: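 Compounds were incubated with CYP1A2 and a luminogenic proluciferin substrate for 10 min at room temperature before the reaction was started with NADPH regeneration solution. After 1 h, detection reagent was added and light output, proportional to CYP activity, was recorded.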
# [4] = biological target: Cytochrome P450 2C19 (Homo sapiens) (UniProt P33261); experiment: Cytochrome P450 Family 2 Subfamily C Member 19 (CYP2C19) small molecule antagonists: luciferase reporter qHTS assay (AID 1671197); further: nearly all actives have a fitted effect of over 65% in size
# How it was run: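 Inhibition of CYP2C19 was scored from loss of luminescence in a P450-Glo proluciferin substrate assay, NADPH-started and run 1 h at 37C, with ketoconazole as positive control.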
# [5] = biological target: Cytochrome P450 2C9 (Homo sapiens) (UniProt P11712); experiment: Cytochrome P450 Family 2 Subfamily C Member 9 (CYP2C9) small molecule antagonists: luciferase reporter qHTS assay (AID 1671198); further: nearly all actives have a fitted effect of over 50% in size
# How it was run: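 Enzyme-substrate mix preincubated with compound 10 min at room temperature; reaction started with NADPH regeneration solution, 1 h 37C. Luminescent luciferin product read after 20 min detection reagent.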
# [6] = biological target: Voltage-gated inwardly rectifying potassium channel KCNH2 (Homo sapiens) (UniProt Q12809); experiment: Human Ether-a-go-go-Related Gene (hERG) channel small molecule antagonists: fluorescence cell-based qHTS assay (AID 1671200); further: nearly all actives have a fitted effect of over 50% in size
# How it was run: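 Read-out: thallium influx as a surrogate for potassium, tracked as fluorescence (480 nm ex/540 nm em) every second for 2 min after Stimulus Buffer addition in dye-loaded hERG-U2OS cells.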
# Potency means the concentration at half of the fitted maximal effect.
structure (smiles),measurement,setting,value
CC(C)(C)c1cc(CCC(=O)NN)cc(C(C)(C)C)c1O,Potency,[1],active: 35.6 µM
same,Potency,[2],active: 0.159 µM
O=C(O)c1cccc(Cl)c1Cl,Potency,[1],"inconclusive: 35.6 µM [inhibitor, partial curve]"
same,Potency,[3],"inconclusive: 71 µM [inhibitor, partial curve]"
O=C1OCCO1,Potency,[4],"inconclusive: 94.4 µM [inhibitor, single point]"
C=CC(=C)CC/C=C(\C)CCC=C(C)C,Potency,[4],"inconclusive: 19 µM [inhibitor, single point]"
same,Potency,[5],"inconclusive: 16.9 µM [inhibitor, partial curve]"
CC(C)COC(=O)/C=C/c1ccccc1,Potency,[4],"inconclusive: 89.4 µM [inhibitor, single point]"
same,Potency,[5],"inconclusive: 56.4 µM [inhibitor, partial curve]"
same,Potency,[3],active: 28.3 µM
same,Potency,[6],"inconclusive: 43.6 µM [inhibitor, partial curve]"
COC(=O)c1ccc(I)cc1S(=O)(=O)NC(=O)Nc1nc(C)nc(OC)n1,Potency,[4],inactive
Cc1ccncc1,Potency,[4],inactive
C1=CCC(c2ccccc2)CC1 (stereo not given),Potency,[4],inactive
same,Potency,[5],inactive
same,Potency,[3],"inconclusive: 39.9 µM [inhibitor, partial curve]"
O=C(O)C1=NN(c2ccc(S(=O)(=O)O)cc2)C(=O)C1,Potency,[4],"inconclusive: 89.4 µM [inhibitor, single point]"
same,Potency,[5],inactive
Cn1c(=O)c2c(ncn2CC(=O)O)n(C)c1=O,Potency,[4],"inconclusive: 43.6 µM [inhibitor, partial curve, poor fit]"
same,Potency,[5],inactive

# A section of the results above:
structure (smiles),measurement,setting,value
O=C1OCCO1,Potency,[4],"inconclusive: 94.4 µM [inhibitor, single point]"
C=CC(=C)CC/C=C(\C)CCC=C(C)C,Potency,[4],"inconclusive: 19 µM [inhibitor, single point]"
